In article PMC9867762:
No constants are given. Whether binding was seen depends on the method and setting. In cells and extracts the contact can be indirect. Some binding calls cover weakened binding; strength is not graded here.

Amino acid sequences for entries named in this document (tags omitted).
UniProt P14598: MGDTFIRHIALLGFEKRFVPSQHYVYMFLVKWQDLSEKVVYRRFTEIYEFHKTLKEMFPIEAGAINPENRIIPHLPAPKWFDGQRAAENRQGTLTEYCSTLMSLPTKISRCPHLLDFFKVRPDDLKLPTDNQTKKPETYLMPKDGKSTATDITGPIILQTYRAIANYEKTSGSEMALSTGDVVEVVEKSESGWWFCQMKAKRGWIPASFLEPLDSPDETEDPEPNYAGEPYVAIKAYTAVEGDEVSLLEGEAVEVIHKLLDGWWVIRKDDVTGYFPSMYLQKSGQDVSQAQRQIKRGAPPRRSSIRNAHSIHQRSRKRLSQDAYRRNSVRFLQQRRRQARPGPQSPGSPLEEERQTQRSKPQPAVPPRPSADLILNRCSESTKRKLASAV

Target: T1, NADPH oxidase 2 (NOX2)/gp91phox (human (endogenous in SH-SY5Y)) (UniProt P04839)
T1 sequence: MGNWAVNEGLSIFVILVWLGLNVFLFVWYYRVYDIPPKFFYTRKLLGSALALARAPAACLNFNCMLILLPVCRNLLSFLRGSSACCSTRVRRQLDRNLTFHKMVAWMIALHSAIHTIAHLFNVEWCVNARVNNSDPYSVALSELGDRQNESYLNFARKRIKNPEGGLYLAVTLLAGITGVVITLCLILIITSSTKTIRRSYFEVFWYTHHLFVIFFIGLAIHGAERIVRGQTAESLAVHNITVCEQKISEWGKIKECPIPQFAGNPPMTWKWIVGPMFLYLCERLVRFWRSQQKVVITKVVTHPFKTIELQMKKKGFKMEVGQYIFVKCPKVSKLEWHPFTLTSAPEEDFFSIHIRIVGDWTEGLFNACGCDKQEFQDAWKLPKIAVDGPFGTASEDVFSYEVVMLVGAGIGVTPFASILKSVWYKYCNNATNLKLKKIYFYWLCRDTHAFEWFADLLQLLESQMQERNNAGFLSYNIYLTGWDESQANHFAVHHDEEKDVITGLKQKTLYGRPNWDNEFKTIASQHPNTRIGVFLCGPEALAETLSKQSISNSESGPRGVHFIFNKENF
Experiment: co-IP; SH-SY5Y lysates immunoprecipitated with anti-gp91phox (or anti-IgG), blotted for p47phox; cells with or without crocetin (100 uM, 1 h) before MNNG (100 uM, 15 min)

binding: binds
Substance: NADPH oxidase subunit p47phox (from UniProt P14598 1-390)
